The list shows only some results of the screen, not a fair sample: it gathers tests that were run many times, whatever their T/C, doses with no T/C, and many T/C values between a quarter and a half above the control. Further doses and runs are listed elsewhere. T/C is the treated group as % of the vehicle group. Some entries give survivors of the animals treated and no T/C: the source files T/C as zero there, which appears to mark a toxic dose or a test without result, not a measured value. Some survivor counts are full or nearly so, which does not show that the dose was tolerated: survival well below the control is almost never listed, so the zero probably covers shortened survival too. Survivors were counted at the toxicity check, usually on the fifth day, unless a day is given; later deaths do not show. Schedules are NCI's codes, read here as Q, the interval in days (D) or hours (H), X, the number of doses. Some entries hold several experiments; the results are listed from low to high. Where survival is the endpoint, the PubChem record calls one and a half times the control and up active, and a quarter to a half above the control has no call in these data; cut-offs in other NCI protocols can differ. Some T/C values carry the count of animals alive at the toxicity check (mostly the fifth day); without a count, all were alive then. Signs of the kind (2×) count equal records among those shown.
System: L1210 leukemia ip in BDF1 mice, survival T/C
Test: NCI In Vivo Anticancer Drug Screen. Data for tumor model L1210 Leukemia (intraperitoneal) in B6D2F1 (BDF1) mice
Conditions: T/C endpoint: mean survival time, higher T/C = longer survival
[1] = dose: 100.0 mg/kg/injection, schedule: Q01DX009 (ip), vehicle: methylcellulose (MC)
[2] = dose: 150.0 mg/kg/injection, schedule: Q01DX009 (ip), vehicle: Klucel (hydroxypropylcellulose) (HPC)
[3] = dose: 150.0 mg/kg/injection, schedule: Q01DX009 (ip), vehicle: methylcellulose (MC)
[4] = dose: 160.0 mg/kg/injection, schedule: Q01DX009 (oral), vehicle: other
[5] = dose: 256.0 mg/kg/injection, schedule: Q01DX009 (ip), vehicle: Klucel (hydroxypropylcellulose) (HPC)

## O=C1NC(c2cccc3ccccc23)Nc2ccccc21 (centres undefined)
dose: 31.2 mg/kg/injection, schedule: Q01DX009 (ip), vehicle: water
  T/C: 139 % of control
dose: 32.0 mg/kg/injection, schedule: Q01DX009 (ip), vehicle: Klucel (hydroxypropylcellulose) (HPC)
  T/C: 127 % of control
dose: 32.0 mg/kg/injection, schedule: Q03HX008 (ip), vehicle: Klucel (hydroxypropylcellulose) (HPC)
  T/C: 125 % of control
dose: 32.0 mg/kg/injection, schedule: Q03HX024 (ip), vehicle: Klucel (hydroxypropylcellulose) (HPC)
  T/C: 128 % of control
dose: 40.0 mg/kg/injection, schedule: Q01DX009 (ip), vehicle: Klucel (hydroxypropylcellulose) (HPC)
  T/C: 125 % of control
dose: 40.0 mg/kg/injection, schedule: Q01DX009 (oral), vehicle: methylcellulose (MC)
  survivor count: 5 of 8
dose: 40.0 mg/kg/injection, schedule: Q01DX009 (oral), vehicle: other
  survivor count: 4 of 8
dose: 50.0 mg/kg/injection, schedule: Q01DX009 (ip), vehicle: Klucel (hydroxypropylcellulose) (HPC)
  T/C: 129, 134, 139, 141, 150 % of control
dose: 50.0 mg/kg/injection, schedule: Q01DX009 (ip), vehicle: methylcellulose (MC)
  T/C: 107, 113, 116 [5 of 6 alive], 118, 131, 137 % of control
dose: 60.0 mg/kg/injection, schedule: Q01DX009 (oral), vehicle: methylcellulose (MC)
  survivor count: 4 of 8
dose: 64.0 mg/kg/injection, schedule: Q01DX009 (ip), vehicle: Klucel (hydroxypropylcellulose) (HPC)
  T/C: 142 % of control
dose: 64.0 mg/kg/injection, schedule: Q03HX008 (ip), vehicle: Klucel (hydroxypropylcellulose) (HPC)
  T/C: 144 % of control [9 of 10 alive]
dose: 64.0 mg/kg/injection, schedule: Q03HX016 (ip), vehicle: Klucel (hydroxypropylcellulose) (HPC)
  T/C: 133 % of control
dose: 64.0 mg/kg/injection, schedule: Q03HX024 (ip), vehicle: Klucel (hydroxypropylcellulose) (HPC)
  T/C: 129 % of control
dose: 100.0 mg/kg/injection, schedule: Q01DX009 (ip), vehicle: Klucel (hydroxypropylcellulose) (HPC)
  T/C: 87, 92 [5 of 6 alive], 94, 113, 134, 159 % of control
[1]
  T/C: 86 [5 of 6 alive], 91, 96, 98 [5 of 6 alive], 109, 134 % of control
  survivor count: 6 of 6
dose: 100.0 mg/kg/injection, schedule: Q01DX009 (oral), vehicle: Klucel (hydroxypropylcellulose) (HPC)
  T/C: 127 % of control
dose: 100.0 mg/kg/injection, schedule: Q01DX009 (oral), vehicle: methylcellulose (MC)
  T/C: 103, 106, 108, 114 (2×), 120, 127 % of control
dose: 100.0 mg/kg/injection, schedule: Q01DX009 (oral), vehicle: other
  T/C: 92 [7 of 8 alive], 109, 120, 122, 136 % of control
dose: 100.0 mg/kg/injection, schedule: Q04DX003 (ip), vehicle: methylcellulose (MC)
  T/C: 128 % of control
dose: 120.0 mg/kg/injection, schedule: Q01DX009 (oral), vehicle: other
  survivor count: 3 of 8
dose: 125.0 mg/kg/injection, schedule: Q01DX009 (ip), vehicle: water
  T/C: 130 % of control
dose: 125.0 mg/kg/injection, schedule: Q01DX009 (oral), vehicle: other
  survivor count: 6 of 8
dose: 128.0 mg/kg/injection, schedule: Q03HX008 (ip), vehicle: Klucel (hydroxypropylcellulose) (HPC)
  survivor count: 5 of 10
dose: 128.0 mg/kg/injection, schedule: Q03HX016 (ip), vehicle: Klucel (hydroxypropylcellulose) (HPC)
  survivor count: 6 of 10
dose: 128.0 mg/kg/injection, schedule: Q03HX024 (ip), vehicle: Klucel (hydroxypropylcellulose) (HPC)
  survivor count: 2 of 10
dose: 128.0 mg/kg/injection, schedule: Q04DX003 (ip), vehicle: Klucel (hydroxypropylcellulose) (HPC)
  T/C: 135 % of control
dose: 140.0 mg/kg/injection, schedule: Q01DX009 (ip), vehicle: Klucel (hydroxypropylcellulose) (HPC)
  survivor count: 6 of 8
dose: 140.0 mg/kg/injection, schedule: Q01DX009 (ip), vehicle: methylcellulose (MC)
  survivor count: 8 of 8
[2]
  T/C: 109 and 141 % of control
  survivor count: 5 of 6 and 6 of 6
[3]
  T/C: 102 % of control
  survivor count: 1 of 6, 2 of 6, 3 of 6, 4 of 6, 5 of 6
dose: 150.0 mg/kg/injection, schedule: Q01DX009 (oral), vehicle: Klucel (hydroxypropylcellulose) (HPC)
  T/C: 135 % of control
dose: 150.0 mg/kg/injection, schedule: Q01DX009 (oral), vehicle: methylcellulose (MC)
  T/C: 108, 111, 121, 125, 143, 161, 164 % of control
dose: 150.0 mg/kg/injection, schedule: Q01DX009 (oral), vehicle: other
  T/C: 145 % of control [5 of 6 alive]
dose: 150.0 mg/kg/injection, schedule: Q01DX009 (oral), vehicle: saline
  T/C: 132 % of control
[4]
  T/C: 126 % of control [7 of 8 alive]
  survivor count: 3 of 8
dose: 200.0 mg/kg/injection, schedule: Q01DX009 (ip), vehicle: Klucel (hydroxypropylcellulose) (HPC)
  survivor count: 4 of 6, 5 of 6, 6 of 6
dose: 200.0 mg/kg/injection, schedule: Q01DX009 (ip), vehicle: methylcellulose (MC)
  survivor count: 0 of 6, 2 of 6, 4 of 6, 5 of 6
dose: 200.0 mg/kg/injection, schedule: Q01DX009 (oral), vehicle: Klucel (hydroxypropylcellulose) (HPC)
  T/C: 133 % of control
dose: 200.0 mg/kg/injection, schedule: Q01DX009 (oral), vehicle: methylcellulose (MC)
  T/C: 112, 115, 121, 140, 146, 148, 159 % of control
dose: 200.0 mg/kg/injection, schedule: Q01DX009 (oral), vehicle: other
  T/C: 127 % of control
dose: 200.0 mg/kg/injection, schedule: Q01DX009 (oral), vehicle: saline
  T/C: 125 % of control
dose: 200.0 mg/kg/injection, schedule: Q04DX003 (ip), vehicle: methylcellulose (MC)
  T/C: 143 % of control [7 of 8 alive]
dose: 200.0 mg/kg/injection, schedule: Q04DX003 (ip), vehicle: water
  T/C: 135 % of control [9 of 10 alive]
dose: 225.0 mg/kg/injection, schedule: Q01DX009 (oral), vehicle: Klucel (hydroxypropylcellulose) (HPC)
  T/C: 126 % of control
dose: 250.0 mg/kg/injection, schedule: Q01DX001 (ip), vehicle: water
  T/C: 126 % of control
dose: 250.0 mg/kg/injection, schedule: Q01DX009 (ip), vehicle: Klucel (hydroxypropylcellulose) (HPC)
  survivor count: 0 of 6, 3 of 6, 5 of 6
dose: 250.0 mg/kg/injection, schedule: Q01DX009 (ip), vehicle: methylcellulose (MC)
  survivor count: 0 of 6, 1 of 6, 2 of 6, 3 of 6
dose: 250.0 mg/kg/injection, schedule: Q01DX009 (oral), vehicle: Klucel (hydroxypropylcellulose) (HPC)
  T/C: 126, 135 [7 of 8 alive], 141 % of control
dose: 250.0 mg/kg/injection, schedule: Q01DX009 (oral), vehicle: methylcellulose (MC)
  T/C: 108, 122 [7 of 8 alive], 125, 140, 153, 154, 186 % of control
dose: 250.0 mg/kg/injection, schedule: Q01DX009 (oral), vehicle: other
  survivor count: 3 of 8
dose: 250.0 mg/kg/injection, schedule: Q01DX009 (oral), vehicle: saline
  T/C: 132 and 135 % of control
dose: 250.0 mg/kg/injection, schedule: Q04DX003 (ip), vehicle: other
  survivor count: 7 of 8
dose: 250.0 mg/kg/injection, schedule: Q04DX003 (ip), vehicle: water
  T/C: 142 % of control
[5]
  T/C: 138 % of control [9 of 10 alive]
  survivor count: 4 of 10
dose: 300.0 mg/kg/injection, schedule: Q04DX003 (ip), vehicle: other
  survivor count: 0 of 8
dose: 300.0 mg/kg/injection, schedule: Q04DX003 (oral), vehicle: methylcellulose (MC)
  survivor count: 4 of 8
dose: 300.0 mg/kg/injection, schedule: Q04DX003 (oral), vehicle: other
  survivor count: 4 of 8
dose: 400.0 mg/kg/injection, schedule: Q04DX003 (ip), vehicle: water
  T/C: 149 % of control
dose: 500.0 mg/kg/injection, schedule: Q01DX001 (ip), vehicle: water
  T/C: 134 % of control
dose: 516.0 mg/kg/injection, schedule: Q04DX003 (ip), vehicle: Klucel (hydroxypropylcellulose) (HPC)
  survivor count: 6 of 10
dose: 1024.0 mg/kg/injection, schedule: Q01DX001 (ip), vehicle: Klucel (hydroxypropylcellulose) (HPC)
  T/C: 138 % of control
dose: 1024.0 mg/kg/injection, schedule: Q04DX003 (ip), vehicle: Klucel (hydroxypropylcellulose) (HPC)
  survivor count: 1 of 10 and 9 of 10
dose: 1024.0 mg/kg/injection, schedule: Q08DX002 (ip), vehicle: Klucel (hydroxypropylcellulose) (HPC)
  T/C: 131 % of control [7 of 10 alive]

Reference: PubChem BioAssay AID248 (DTP/NCI, 2004)
